PubChem BioAssay AID504793 | Drosophila RNAi Screening Center, 2011

Purpose: 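Genes required for cells to halt at G2/M after double-strand DNA breaks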 (primary screen)
Cells: Drosophila S2R+ cells
Reagent: long dsRNA against Drosophila genes, about 0.25 µg dsRNA per well
Duration: 4 days of dsRNA, then 4 hours of drug before read-out
Conditions: doxorubicin 0.5 µM for 4 hours to cause double-strand breaks, in cells also given a low, harmless dose of dsRNA against nbs to sensitise the assay
Read-out: 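Per-well count of mitotic cells stained for phospho-histone H3 after doxorubicin exposure, used as mitotic index; counts are raw and not normalised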
Direction: mitotic cells: higher = more cells in mitosis, weaker G2 arrest
Rule for the call: 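Genes are called active only when high mitotic counts were reproduced with independent dsRNAs and mitosis was checked for delay without damage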
Meaning of the calls: active = confirmed in follow-up tests; inactive = not confirmed
In all, the deposit lists about 23,000 reagents; below is a random part of those that have a named target and a result. Of all reagents, 62 (0.27%) got an active call. 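Calls come from follow-up tests whose scores are not deposited, so confirmed genes may have low counts here; counts are not normalised per plate.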 Raw values are not corrected between plates. Entries without a mark were called inactive. Reagent sequences are not shown.

The first 3 records as a preview:
Target gene,amplicon,"mitotic cells, replicate 1"
spz4,DRSC02410,2
spz4,DRSC27274,6
CG9471,DRSC16499,5

Main list, from the first entry:
Target gene,amplicon,"mitotic cells, replicate 1"
spz4,DRSC02410,2
spz4,DRSC27274,6
CG9471,DRSC16499,5
CG9471,DRSC26334,8
Fadd,DRSC14122,5
CG34444,DRSC06435,7
cos,DRSC07598,6
cos,DRSC28447,4
CG13314,DRSC09985,4
CG14286,DRSC14767,5
CG14286,DRSC29125,7
CG17385,DRSC06664,5
CG17385,DRSC26999,3
rho,DRSC08734,9
Cnep1r2,DRSC10950,4
CG13230,DRSC06350,4
CG13230,DRSC26778,7
Strump,DRSC09872,4
CG13438,DRSC06398,4
CG10365,DRSC14234,12
Tango14,DRSC00667,3
Tango14,DRSC29882,6
MTA1-like,DRSC12382,6
MTA1-like,DRSC22022,15
MTA1-like,DRSC23683,8
MTA1-like,DRSC24944,6
ChLD3,DRSC02640,3
CG5953,DRSC01546,4
CG5953,DRSC28725,3
drl,DRSC03523,3
drl,DRSC28564,7
lili,DRSC14143,6
lili,DRSC29667,7
Srp19,DRSC11288,8
Srp19,DRSC24706,4
Mettl14,DRSC03073,6
PDCD-5,DRSC09955,4
Mink,DRSC14291,4
CG1703,DRSC19764,5
soti,DRSC16432,8
soti,DRSC28682,2
CG32507,DRSC20421,5
ssp7,DRSC18878,4
CG32985,DRSC02634,4
CG32985,DRSC24453,8
